PubChem BioAssay AID1671195, Yale University – 2021

- Screen: 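Knockdowns that increase or decrease uptake of fluorescent LDL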 (primary screen)
- Cell system: human Huh7 hepatoma cells
- Reagents: siRNA pool against human genes, 18 nM
- Timing: about 2 to 2.5 days of knockdown, then 8 h LDL uptake
- Challenge: DiI-labelled LDL at 30 µg/ml for 8 h, in lipoprotein-deficient serum medium
- Read-out: 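Fluorescent LDL signal imaged in cells, scaled to the plate median, robust z-score for each replicate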
- Direction: robust z-score: higher = more LDL uptake after knockdown
- Call rule: 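a gene counts as active if at least two replicate z-scores exceed ±2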
The deposit covers about 22,000 reagents; below is an unselected part. About 1,510 of them (6.9%) count as active. 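Active includes knockdowns raising or lowering LDL uptake; positive z-scores mean more uptake, negative mean less.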 Unmarked entries are inactive. No sequences are given here.

With knock-down of LOC440118 (retired record), the record shows robust z-score, replicate 1 = 2.65 (active); robust z-score, replicate 2 = 3.01; robust z-score, replicate 3 = 2.38.
Depletion of EIF3E (eukaryotic translation initiation factor 3 subunit E) resulted in: robust z-score, replicate 1 = -1.45; robust z-score, replicate 2 = -0.984; robust z-score, replicate 3 = -1.42.
Silencing of RFC3 (replication factor C subunit 3) gave: robust z-score, replicate 1 = -0.778; robust z-score, replicate 2 = 0.194; robust z-score, replicate 3 = -0.967.
MAP3K12 (mitogen-activated protein kinase kinase kinase 12) showed robust z-score, replicate 1 = -0.284; robust z-score, replicate 2 = 0.0483; robust z-score, replicate 3 = -0.331.
Knock-down of LOC388173 (retired record) resulted in: robust z-score, replicate 1 = 0.678; robust z-score, replicate 2 = 0.981; robust z-score, replicate 3 = 1.76.
SMG5 (SMG5 nonsense mediated mRNA decay factor) scored robust z-score, replicate 1 = -0.0208; robust z-score, replicate 2 = 0.476; robust z-score, replicate 3 = -0.203.
With knock-down of GPR135 (G protein-coupled receptor 135) the results were robust z-score, replicate 1 = 1.02; robust z-score, replicate 2 = 0.401; robust z-score, replicate 3 = 1.55.
For TSPYL1 (TSPY like 1), the entry reads robust z-score, replicate 1 = 3.15; robust z-score, replicate 2 = 0.231; robust z-score, replicate 3 = 1.3.
With knock-down of MGST3 (microsomal glutathione S-transferase 3), the record shows robust z-score, replicate 1 = -0.519; robust z-score, replicate 2 = -0.603; robust z-score, replicate 3 = -0.82.
LOC389316 (retired record) showed robust z-score, replicate 1 = -0.268; robust z-score, replicate 2 = -0.353; robust z-score, replicate 3 = -0.32.
TMEM178A (transmembrane protein 178A) scored robust z-score, replicate 1 = 1.61 (active); robust z-score, replicate 2 = 2.17; robust z-score, replicate 3 = 2.2.
INSL5 (insulin like 5) scored robust z-score, replicate 1 = 1.2; robust z-score, replicate 2 = 0.277; robust z-score, replicate 3 = 0.626.
With knock-down of LOC441555 (retired record) the results were robust z-score, replicate 1 = 2.05; robust z-score, replicate 2 = -0.222; robust z-score, replicate 3 = 0.44.
With knock-down of VPREB1 (V-set pre-B cell surrogate light chain 1) the results were robust z-score, replicate 1 = -0.308; robust z-score, replicate 2 = -0.796; robust z-score, replicate 3 = -0.868.
For RPS6P1 (ribosomal protein S6 pseudogene 1), the entry reads robust z-score, replicate 1 = 0.34; robust z-score, replicate 2 = 0.121; robust z-score, replicate 3 = 0.291.
With knock-down of LOC441777 (retired record), the record shows robust z-score, replicate 1 = 0.79; robust z-score, replicate 2 = 1.32; robust z-score, replicate 3 = 0.941.
Knock-down of ZBTB43 (zinc finger and BTB domain containing 43) came out at: robust z-score, replicate 1 = -0.741; robust z-score, replicate 2 = -0.265; robust z-score, replicate 3 = -0.282.
With knock-down of APH1A (aph-1A gamma-secretase subunit), the record shows robust z-score, replicate 1 = 0.663; robust z-score, replicate 2 = 1.37; robust z-score, replicate 3 = 0.703.
GALNT5 (polypeptide N-acetylgalactosaminyltransferase 5) showed robust z-score, replicate 1 = -1.48; robust z-score, replicate 2 = 0.262; robust z-score, replicate 3 = -1.5.
Silencing of ABTB3 (ankyrin repeat and BTB domain containing 3) gave: robust z-score, replicate 1 = -0.00629; robust z-score, replicate 2 = -0.542; robust z-score, replicate 3 = -0.904.
After knock-down of KCNA10 (potassium voltage-gated channel subfamily A member 10), the record shows robust z-score, replicate 1 = -0.174; robust z-score, replicate 2 = 0.666; robust z-score, replicate 3 = -0.636.
Against MBL2 (mannose binding lectin 2) the deposit lists robust z-score, replicate 1 = -1.05; robust z-score, replicate 2 = -1.19; robust z-score, replicate 3 = -1.04.
Knock-down of HNRNPK (heterogeneous nuclear ribonucleoprotein K) came out at: robust z-score, replicate 1 = 0.49; robust z-score, replicate 2 = 0.452; robust z-score, replicate 3 = -0.413.
With knock-down of TRIM40 (tripartite motif containing 40), the record shows robust z-score, replicate 1 = 0.358; robust z-score, replicate 2 = 0.136; robust z-score, replicate 3 = 1.53.
Silencing of CD58 (CD58 molecule) resulted in: robust z-score, replicate 1 = -1.23; robust z-score, replicate 2 = -0.65; robust z-score, replicate 3 = -1.15.
After knock-down of RPL30 (ribosomal protein L30) the results were robust z-score, replicate 1 = -1.09; robust z-score, replicate 2 = -1.3; robust z-score, replicate 3 = -0.634.
With knock-down of TMEM186 (transmembrane protein 186), the screen gave robust z-score, replicate 1 = -0.345; robust z-score, replicate 2 = 0.981; robust z-score, replicate 3 = -0.00385.
Against DENND6A (DENN domain containing 6A) the deposit lists robust z-score, replicate 1 = -0.217; robust z-score, replicate 2 = -0.244; robust z-score, replicate 3 = 0.171.
Depletion of CMC2 (C-X9-C motif containing 2) gave: robust z-score, replicate 1 = 0.656; robust z-score, replicate 2 = 0.259; robust z-score, replicate 3 = -0.378.
NPAT (nuclear protein, coactivator of histone transcription) gave robust z-score, replicate 1 = 0.138; robust z-score, replicate 2 = -0.498; robust z-score, replicate 3 = 0.712.

Not a retest: an excerpt of the list.
CMC2 (C-X9-C motif containing 2) | robust z-score, replicate 1: 0.656; robust z-score, replicate 2: 0.259; robust z-score, replicate 3: -0.378
NPAT (nuclear protein, coactivator of histone transcription) | robust z-score, replicate 1: 0.138; robust z-score, replicate 2: -0.498; robust z-score, replicate 3: 0.712
